The exact form of at least one protein or probe is not confirmed. For some of these results: A weaker result is weaker than the reference pair of the same experiment. For some of these results: At least one verdict rests on a figure or table, not on a statement of the authors.
What was measured:
[1] = system: PARP-1 full length + hXRCC1; experiment: smFRET / FCS; conditions: 1 uM PARP-1, diffusion time increased, no FRET change; C2-linker on T18 and T37; recombinant protein; label: Alexa647 at T18, ATTO550 at T37; folded or branched DNA
PARP-1 F2 + hXRCC1 = experiment: smFRET / FRET-FCS; conditions: XRCC1 with F2: three states, E=0.51, 0.70, 0.85; C2-linker on T18 and T37; recombinant protein; protein details: C-terminal His6; label: Alexa647 at T18, ATTO550 at T37; folded or branched DNA
[2] = molecular target: PARP-1 full length (Homo sapiens) (UniProt P09874); experiment: smFRET / FRET-FCS; conditions: niraparib, unkinked state increased, diffusion time 1976 us vs 1303 us free DNA; C2-linker on T18 and T37; recombinant protein; label: Alexa647 at T18, ATTO550 at T37; folded or branched DNA
hXRCC1 (Homo sapiens) = hXRCC1 (Homo sapiens) (UniProt P18887); experiment: smFRET / FRET-FCS; conditions: no PARP-1, DNA conformation unchanged, diffusion time increased; C2-linker on T18 and T37; recombinant protein; protein details: C-terminal His6; label: Alexa647 at T18, ATTO550 at T37; folded or branched DNA
PARP-1 F2 (Homo sapiens) = PARP-1 F2 (Homo sapiens) (UniProt P09874); experiment: smFRET / FRET-FCS; conditions: intermediate kink; C2-linker on T18 and T37; recombinant protein; residues 103-214; label: Alexa647 at T18, ATTO550 at T37; folded or branched DNA
PARP-1 F1 (Homo sapiens) = PARP-1 F1 (Homo sapiens) (UniProt P09874); experiment: smFRET / FRET-FCS; conditions: DNA stays straight, less bound than F2 at equal concentration; C2-linker on T18 and T37; recombinant protein; residues 1-103; label: Alexa647 at T18, ATTO550 at T37; folded or branched DNA
[3] = molecular target: PARP-1 full length (Homo sapiens) (UniProt P09874); experiment: smFRET; conditions: C2-linker on T18 and T37, recombinant protein, label: Alexa647 at T18, ATTO550 at T37, folded or branched DNA
[4] = molecular target: PARP-1 F1F2 (Homo sapiens) (UniProt P09874); experiment: smFRET; conditions: 1 uM F1F2, kinked DNA, E=0.86; C2-linker on T18 and T37; recombinant protein; residues 1-214; label: Alexa647 at T18, ATTO550 at T37; folded or branched DNA

Sequences of proteins named here, by UniProt entry; tags and fusion partners are left off. A change or cut given only in a name is not applied to a line headed by its entry. Residues count along the entry.
UniProt P09874, whole entry: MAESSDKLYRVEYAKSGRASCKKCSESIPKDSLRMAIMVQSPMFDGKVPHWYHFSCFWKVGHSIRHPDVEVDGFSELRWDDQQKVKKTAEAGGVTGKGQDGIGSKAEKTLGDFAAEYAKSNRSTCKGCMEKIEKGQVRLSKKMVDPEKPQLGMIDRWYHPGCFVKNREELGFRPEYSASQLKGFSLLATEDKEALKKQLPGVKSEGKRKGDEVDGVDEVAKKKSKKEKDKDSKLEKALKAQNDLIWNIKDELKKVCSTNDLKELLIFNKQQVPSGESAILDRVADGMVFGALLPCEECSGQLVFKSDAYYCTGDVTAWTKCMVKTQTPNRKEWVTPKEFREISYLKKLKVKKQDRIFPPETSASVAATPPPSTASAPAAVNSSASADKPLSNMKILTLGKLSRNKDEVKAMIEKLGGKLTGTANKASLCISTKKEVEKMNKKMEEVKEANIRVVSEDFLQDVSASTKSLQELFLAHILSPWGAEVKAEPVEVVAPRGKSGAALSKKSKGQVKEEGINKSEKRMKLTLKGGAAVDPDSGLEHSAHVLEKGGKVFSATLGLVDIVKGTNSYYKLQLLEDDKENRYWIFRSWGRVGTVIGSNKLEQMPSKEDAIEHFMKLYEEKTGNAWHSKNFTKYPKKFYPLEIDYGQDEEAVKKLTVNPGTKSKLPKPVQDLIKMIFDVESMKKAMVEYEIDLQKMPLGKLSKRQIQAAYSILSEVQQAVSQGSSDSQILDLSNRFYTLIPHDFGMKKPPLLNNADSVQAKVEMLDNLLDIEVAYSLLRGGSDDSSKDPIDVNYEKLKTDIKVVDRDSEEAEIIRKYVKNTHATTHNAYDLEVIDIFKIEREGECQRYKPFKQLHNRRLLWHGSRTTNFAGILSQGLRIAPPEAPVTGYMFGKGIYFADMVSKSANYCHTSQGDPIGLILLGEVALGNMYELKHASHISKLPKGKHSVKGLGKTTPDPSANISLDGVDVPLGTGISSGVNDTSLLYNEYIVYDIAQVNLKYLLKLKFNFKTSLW
UniProt P09874, 103-214: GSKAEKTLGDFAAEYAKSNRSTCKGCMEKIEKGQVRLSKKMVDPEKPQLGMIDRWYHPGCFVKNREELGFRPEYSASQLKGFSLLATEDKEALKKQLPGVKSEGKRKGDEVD
UniProt P09874, 1-103: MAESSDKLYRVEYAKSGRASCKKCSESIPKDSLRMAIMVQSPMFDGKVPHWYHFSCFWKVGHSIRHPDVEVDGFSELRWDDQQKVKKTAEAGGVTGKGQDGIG
UniProt P09874, 1-214: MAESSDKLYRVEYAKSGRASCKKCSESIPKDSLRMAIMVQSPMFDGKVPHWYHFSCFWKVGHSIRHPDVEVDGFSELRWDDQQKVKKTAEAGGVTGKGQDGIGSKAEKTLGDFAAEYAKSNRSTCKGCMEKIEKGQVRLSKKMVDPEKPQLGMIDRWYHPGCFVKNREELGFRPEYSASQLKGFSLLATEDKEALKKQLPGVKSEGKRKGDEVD
UniProt P18887: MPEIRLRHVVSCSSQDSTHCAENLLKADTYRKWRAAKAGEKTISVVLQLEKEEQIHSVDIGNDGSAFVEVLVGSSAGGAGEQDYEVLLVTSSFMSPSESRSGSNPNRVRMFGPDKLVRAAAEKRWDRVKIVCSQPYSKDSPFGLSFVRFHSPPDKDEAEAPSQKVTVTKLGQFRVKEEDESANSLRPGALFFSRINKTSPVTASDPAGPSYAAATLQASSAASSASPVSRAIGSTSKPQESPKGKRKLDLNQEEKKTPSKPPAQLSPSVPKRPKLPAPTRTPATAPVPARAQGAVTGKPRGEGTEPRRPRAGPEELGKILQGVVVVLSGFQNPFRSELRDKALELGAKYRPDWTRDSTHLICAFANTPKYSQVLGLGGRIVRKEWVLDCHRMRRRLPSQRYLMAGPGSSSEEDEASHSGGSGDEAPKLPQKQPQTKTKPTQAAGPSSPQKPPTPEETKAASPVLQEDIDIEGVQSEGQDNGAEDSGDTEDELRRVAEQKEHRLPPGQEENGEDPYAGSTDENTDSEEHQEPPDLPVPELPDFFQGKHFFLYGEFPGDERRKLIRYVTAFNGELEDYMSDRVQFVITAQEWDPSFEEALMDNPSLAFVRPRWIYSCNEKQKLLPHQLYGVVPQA

“GCTGGCTGATCGTAAGATCAGCCAGCCGCGGTCGGCTGTCAGCTTGCTGACAGCCGACCGCG [DNAATTO nicked dumbbell]”: binds [1]; binds (PARP-1 F2 + hXRCC1); binds [2]. “GCTGGCTGATCGTAAGATCAGCCAGCCGCGGTCGGCTGTCAGCTTGCTGACAGCCGACCGCG [DNAATTO nicked dumbbell]”: binds (hXRCC1 (Homo sapiens)); binds (PARP-1 F2 (Homo sapiens)); binds more weakly (PARP-1 F1 (Homo sapiens)). “GCTGGCTGATCGTAAGATCAGCCAGCCGCGGTCGGCTGTCAGCTTGCTGACAGCCGACCGCG [DNAATTO nicked dumbbell]”: binds ([3]; EB-47, kinked state stabilized); binds ([3]; no inhibitor, kinked DNA, E=0.87); binds ([3]; olaparib, neutral effect). “GCTGGCTGATCGTAAGATCAGCCAGCCGCGGTCGGCTGTCAGCTTGCTGACAGCCGACCGCG [DNAATTO nicked dumbbell]”: binds ([3]; rucaparib); binds ([3]; talazoparib); binds ([3]; veliparib). “GCTGGCTGATCGTAAGATCAGCCAGCCGCGGTCGGCTGTCAGCTTGCTGACAGCCGACCGCG [DNAATTO nicked dumbbell]”: binds [4].

— PMC9630430
